The name of at least one read-out is uncertain.
Test system: DU145 prostate carcinoma cell line
Assay: Proliferation assay, DU145
Type: cell-based
Method: Proliferation assays: Cells are maintained in minimum essential medium alpha plus 10% fetal bovine serum and penicillin (50 units/mL)/streptomycin (50 mg/L) (growth medium). Cultures are incubated in a humidified atmosphere of 5% CO2 at 37° C. Rapidly proliferating cells are used to establish cultures of experimental cells, which are allowed to adhere overnight in 96-well plates or 25-cm^2 flasks prior to manipulation.
Exposure to chemotherapy drugs and combinations thereof: Cells are grown in 96-well plates and treated with simultaneous exposure to a single drug or a combination of two drugs at the concentrations indicated. The relative cell density is determined after 4 days by viability staining (alamarBlue© or neutral red).
The relative density of cells treated with two agents is normalized to the density observed for a respectively treated “second agent” control. The concentration of drug that inhibits proliferation by 50% (IC50 value) is interpolated from plotted data. The change in the IC50 value of a chemotherapy drug caused by the presence of the second agent is determined as a percent of the IC50 of the first drug alone. […] This methodology, previously reported (Ferguson et al., 2009; Blake et al., 2017; Ferguson et al., 2018), provides a quantitative, concentration-dependent representation of the magnitude of the drug interaction.

CN1CCN(c2ccc(-c3ccc4c(c3)[C@H](c3c[nH]c5ccccc35)N(S(=O)(=O)Cc3ccccc3)C4)cc2)CC1.CS(=O)(=O)O [JKYN-1-mesylate, (R)-3-(2-(Benzylsulfonyl)-6-(4-(4-methylpiperazin-1-yl)phenyl)isoindolin-1-yl)-1H-indole, Mesylate Salt]
IC50 of JKYN-1-mesylate in the presence of enzalutamide: reduced

From patent US20240083883A1, “RAD51 BINDING INHIBITORS AND METHODS OF USE THEREOF” (Sarissa Inc., priority 2020, published 2024)
